Two substances from PMC10045983 can be followed below.

By UniProt entry, the sequences of proteins in these tests, tags left out.
UniProt Q14432: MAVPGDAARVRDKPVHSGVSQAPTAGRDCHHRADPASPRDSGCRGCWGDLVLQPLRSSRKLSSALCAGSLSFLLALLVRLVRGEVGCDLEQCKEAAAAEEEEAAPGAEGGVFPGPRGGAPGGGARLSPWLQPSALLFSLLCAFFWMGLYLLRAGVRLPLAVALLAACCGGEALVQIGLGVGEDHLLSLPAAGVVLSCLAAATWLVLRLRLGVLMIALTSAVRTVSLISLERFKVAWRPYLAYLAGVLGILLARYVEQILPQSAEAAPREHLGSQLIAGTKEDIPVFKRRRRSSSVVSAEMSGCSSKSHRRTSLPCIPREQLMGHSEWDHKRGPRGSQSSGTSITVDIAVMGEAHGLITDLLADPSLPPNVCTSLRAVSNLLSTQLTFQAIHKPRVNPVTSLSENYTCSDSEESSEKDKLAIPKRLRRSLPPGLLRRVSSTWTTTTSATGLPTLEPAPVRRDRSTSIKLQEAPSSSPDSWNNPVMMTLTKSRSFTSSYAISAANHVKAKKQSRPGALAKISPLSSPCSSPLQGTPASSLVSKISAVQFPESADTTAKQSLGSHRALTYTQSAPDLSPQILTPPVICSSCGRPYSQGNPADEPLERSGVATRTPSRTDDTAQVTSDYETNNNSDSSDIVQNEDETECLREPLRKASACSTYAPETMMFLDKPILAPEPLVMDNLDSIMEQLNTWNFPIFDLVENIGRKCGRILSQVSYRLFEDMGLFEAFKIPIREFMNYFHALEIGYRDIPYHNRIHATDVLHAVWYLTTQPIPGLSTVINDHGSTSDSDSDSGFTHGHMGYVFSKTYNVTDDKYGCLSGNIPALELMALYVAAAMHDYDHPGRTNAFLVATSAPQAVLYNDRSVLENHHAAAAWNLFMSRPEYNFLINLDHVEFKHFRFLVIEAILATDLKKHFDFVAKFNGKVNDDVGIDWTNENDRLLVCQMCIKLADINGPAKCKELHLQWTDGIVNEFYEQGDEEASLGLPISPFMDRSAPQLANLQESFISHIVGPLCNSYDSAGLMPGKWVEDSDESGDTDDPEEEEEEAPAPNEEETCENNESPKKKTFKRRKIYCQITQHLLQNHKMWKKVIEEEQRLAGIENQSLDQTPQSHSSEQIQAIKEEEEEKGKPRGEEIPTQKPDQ
UniProt P26431: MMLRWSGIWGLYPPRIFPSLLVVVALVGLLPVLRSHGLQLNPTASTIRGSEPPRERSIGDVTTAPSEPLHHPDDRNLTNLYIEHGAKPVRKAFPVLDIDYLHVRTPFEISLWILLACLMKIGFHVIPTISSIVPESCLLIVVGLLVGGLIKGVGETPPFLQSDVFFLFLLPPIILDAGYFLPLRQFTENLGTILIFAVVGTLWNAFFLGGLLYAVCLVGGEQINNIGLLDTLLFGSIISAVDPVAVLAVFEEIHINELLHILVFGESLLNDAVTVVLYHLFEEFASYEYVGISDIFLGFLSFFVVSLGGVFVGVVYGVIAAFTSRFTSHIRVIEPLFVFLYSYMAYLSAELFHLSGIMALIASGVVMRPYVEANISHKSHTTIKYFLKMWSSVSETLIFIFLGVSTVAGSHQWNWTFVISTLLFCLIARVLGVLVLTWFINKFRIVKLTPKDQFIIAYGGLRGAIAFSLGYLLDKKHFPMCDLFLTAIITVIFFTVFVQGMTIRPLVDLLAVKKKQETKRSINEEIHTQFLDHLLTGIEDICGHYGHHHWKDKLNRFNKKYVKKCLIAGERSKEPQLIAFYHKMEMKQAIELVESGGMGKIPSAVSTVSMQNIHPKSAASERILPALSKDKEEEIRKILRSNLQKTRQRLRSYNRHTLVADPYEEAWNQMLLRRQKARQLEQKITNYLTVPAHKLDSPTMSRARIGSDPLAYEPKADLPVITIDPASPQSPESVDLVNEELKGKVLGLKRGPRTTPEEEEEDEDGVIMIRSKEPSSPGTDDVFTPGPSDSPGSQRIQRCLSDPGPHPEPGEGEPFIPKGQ
UniProt P11507: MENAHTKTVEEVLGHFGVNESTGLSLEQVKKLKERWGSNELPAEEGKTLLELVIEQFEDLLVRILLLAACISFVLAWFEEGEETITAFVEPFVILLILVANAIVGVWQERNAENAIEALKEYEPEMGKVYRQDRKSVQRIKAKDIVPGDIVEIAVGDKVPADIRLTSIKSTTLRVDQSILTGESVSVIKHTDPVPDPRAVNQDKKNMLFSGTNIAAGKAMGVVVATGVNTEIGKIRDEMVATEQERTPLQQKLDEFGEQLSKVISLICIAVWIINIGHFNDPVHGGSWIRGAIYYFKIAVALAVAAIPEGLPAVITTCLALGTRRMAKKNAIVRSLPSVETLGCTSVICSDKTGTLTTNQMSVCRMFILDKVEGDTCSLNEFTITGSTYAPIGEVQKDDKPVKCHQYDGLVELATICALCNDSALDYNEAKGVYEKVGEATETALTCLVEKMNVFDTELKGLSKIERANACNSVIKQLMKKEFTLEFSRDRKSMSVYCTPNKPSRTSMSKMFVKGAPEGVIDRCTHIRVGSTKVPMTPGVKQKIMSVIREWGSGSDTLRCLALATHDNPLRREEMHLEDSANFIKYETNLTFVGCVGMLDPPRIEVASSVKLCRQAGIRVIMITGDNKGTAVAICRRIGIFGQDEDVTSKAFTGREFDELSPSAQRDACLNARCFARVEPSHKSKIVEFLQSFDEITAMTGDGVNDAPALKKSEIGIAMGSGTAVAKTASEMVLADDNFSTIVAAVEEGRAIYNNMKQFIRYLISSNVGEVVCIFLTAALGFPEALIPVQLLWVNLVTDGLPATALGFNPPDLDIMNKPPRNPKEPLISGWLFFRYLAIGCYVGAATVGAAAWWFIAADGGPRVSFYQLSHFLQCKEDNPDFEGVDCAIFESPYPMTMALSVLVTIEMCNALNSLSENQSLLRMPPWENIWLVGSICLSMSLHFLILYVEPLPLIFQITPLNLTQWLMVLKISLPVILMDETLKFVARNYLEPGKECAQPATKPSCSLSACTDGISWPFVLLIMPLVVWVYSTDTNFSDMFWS

This assay has as its target PDE3A1-mCherry (UniProt Q14432). Description: affinity purification with mass spectrometry; PDE2A2-mCherry, PDE3A1-mCherry, PDE3A2-mCherry or mCherry purified from NRVM lysates on RFP-Trap beads, eluted with 8 mol/L urea, label-free quantification LC-MS/MS; mCherry alone as control.

These are yes or no findings as the source states them, for the method shown. Binding seen in cells or lysates may run through a third protein. Here binding means that the protein was enriched with, or labelled near, the bait; the list need not be complete.

For “NHE1 (Na+/H+ exchanger 1) (from UniProt P26431 1-820)”, the binding result is reported as “binds”.
As for “SERCA2 (sarco-endoplasmic reticulum calcium ATPase 2) (from UniProt P11507 1-1043)”, the binding entry was “binds”.
